Test results from publication doi:10.1101/715409 (bioRxiv, 2019).
No constants are given. Whether binding was seen depends on the method and setting. Binding seen in cells or lysates may run through a third protein. Some binding calls cover weakened binding; strength is not graded here. For some assays here: Where a sequence is shown, tags or fusion partners need not be part of it.

By UniProt entry, the sequences of proteins in these tests, tags left out.
UniProt P41832: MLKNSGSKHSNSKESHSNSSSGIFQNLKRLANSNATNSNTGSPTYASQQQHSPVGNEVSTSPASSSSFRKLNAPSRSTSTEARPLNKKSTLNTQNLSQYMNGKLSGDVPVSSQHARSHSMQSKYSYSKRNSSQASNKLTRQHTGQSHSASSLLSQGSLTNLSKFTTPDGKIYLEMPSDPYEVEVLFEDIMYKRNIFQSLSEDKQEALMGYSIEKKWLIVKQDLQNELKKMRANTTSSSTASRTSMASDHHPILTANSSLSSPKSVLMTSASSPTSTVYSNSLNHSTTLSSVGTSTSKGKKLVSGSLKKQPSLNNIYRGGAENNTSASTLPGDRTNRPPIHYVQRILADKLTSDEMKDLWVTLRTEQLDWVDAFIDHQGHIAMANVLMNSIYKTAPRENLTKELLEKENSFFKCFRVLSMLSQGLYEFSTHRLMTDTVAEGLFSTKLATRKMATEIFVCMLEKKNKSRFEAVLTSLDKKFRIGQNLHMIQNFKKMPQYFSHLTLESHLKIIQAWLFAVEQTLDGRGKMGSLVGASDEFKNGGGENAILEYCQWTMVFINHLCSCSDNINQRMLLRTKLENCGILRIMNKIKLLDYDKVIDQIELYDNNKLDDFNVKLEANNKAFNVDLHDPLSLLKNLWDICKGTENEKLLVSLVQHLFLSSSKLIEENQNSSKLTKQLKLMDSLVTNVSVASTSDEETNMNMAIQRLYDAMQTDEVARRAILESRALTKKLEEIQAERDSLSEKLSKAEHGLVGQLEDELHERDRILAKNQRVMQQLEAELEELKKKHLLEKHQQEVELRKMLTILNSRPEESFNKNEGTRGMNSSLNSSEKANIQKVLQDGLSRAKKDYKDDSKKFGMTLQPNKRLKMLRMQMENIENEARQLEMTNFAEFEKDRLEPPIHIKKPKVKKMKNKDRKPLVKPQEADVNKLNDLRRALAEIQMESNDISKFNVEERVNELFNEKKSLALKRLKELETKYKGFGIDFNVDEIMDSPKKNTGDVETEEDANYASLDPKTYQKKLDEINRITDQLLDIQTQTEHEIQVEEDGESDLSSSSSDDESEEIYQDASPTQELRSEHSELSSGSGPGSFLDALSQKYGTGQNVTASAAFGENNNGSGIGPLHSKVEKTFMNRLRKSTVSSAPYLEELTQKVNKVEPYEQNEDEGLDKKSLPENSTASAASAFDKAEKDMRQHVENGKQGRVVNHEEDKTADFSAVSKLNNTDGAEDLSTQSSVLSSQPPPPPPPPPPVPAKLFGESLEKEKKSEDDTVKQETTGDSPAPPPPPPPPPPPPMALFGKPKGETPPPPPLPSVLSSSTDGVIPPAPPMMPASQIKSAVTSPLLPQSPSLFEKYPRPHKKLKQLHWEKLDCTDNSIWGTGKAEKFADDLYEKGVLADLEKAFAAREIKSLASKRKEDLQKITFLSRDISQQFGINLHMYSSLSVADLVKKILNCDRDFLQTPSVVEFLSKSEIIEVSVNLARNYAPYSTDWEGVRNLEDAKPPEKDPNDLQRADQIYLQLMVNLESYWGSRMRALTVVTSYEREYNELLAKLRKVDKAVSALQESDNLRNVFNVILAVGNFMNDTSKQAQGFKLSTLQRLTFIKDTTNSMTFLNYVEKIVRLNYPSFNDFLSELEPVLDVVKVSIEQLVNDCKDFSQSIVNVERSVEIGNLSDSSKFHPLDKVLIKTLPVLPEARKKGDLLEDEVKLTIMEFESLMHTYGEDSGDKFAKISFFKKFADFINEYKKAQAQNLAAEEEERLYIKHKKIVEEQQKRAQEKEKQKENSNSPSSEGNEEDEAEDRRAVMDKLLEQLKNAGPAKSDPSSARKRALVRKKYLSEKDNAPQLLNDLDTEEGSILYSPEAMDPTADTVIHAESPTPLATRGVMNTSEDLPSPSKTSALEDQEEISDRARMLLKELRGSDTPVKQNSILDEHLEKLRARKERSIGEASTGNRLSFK
UniProt P30619: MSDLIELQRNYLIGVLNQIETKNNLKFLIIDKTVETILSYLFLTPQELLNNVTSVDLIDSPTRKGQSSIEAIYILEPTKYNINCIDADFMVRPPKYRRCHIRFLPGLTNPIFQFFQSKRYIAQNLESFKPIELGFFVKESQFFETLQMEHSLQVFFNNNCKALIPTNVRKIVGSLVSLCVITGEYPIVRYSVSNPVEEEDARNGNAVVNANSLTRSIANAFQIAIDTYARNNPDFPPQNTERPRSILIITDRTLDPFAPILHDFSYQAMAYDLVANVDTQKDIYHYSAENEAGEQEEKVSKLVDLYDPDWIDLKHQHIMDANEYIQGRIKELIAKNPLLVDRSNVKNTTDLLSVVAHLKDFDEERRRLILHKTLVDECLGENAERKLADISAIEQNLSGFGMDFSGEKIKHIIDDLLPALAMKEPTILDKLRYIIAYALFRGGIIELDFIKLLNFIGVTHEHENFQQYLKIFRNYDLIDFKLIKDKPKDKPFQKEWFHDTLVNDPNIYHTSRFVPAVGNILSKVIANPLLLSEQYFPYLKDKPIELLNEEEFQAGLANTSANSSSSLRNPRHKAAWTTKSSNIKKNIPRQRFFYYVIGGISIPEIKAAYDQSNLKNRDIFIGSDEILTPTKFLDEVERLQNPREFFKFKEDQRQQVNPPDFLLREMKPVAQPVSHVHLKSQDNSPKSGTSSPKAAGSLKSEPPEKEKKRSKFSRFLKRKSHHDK

Assays:
Assay in all cases: split reporter
[1] = target: T1, Boi1CRU (Saccharomyces cerevisiae) (UniProt P38041)
T1 sequence: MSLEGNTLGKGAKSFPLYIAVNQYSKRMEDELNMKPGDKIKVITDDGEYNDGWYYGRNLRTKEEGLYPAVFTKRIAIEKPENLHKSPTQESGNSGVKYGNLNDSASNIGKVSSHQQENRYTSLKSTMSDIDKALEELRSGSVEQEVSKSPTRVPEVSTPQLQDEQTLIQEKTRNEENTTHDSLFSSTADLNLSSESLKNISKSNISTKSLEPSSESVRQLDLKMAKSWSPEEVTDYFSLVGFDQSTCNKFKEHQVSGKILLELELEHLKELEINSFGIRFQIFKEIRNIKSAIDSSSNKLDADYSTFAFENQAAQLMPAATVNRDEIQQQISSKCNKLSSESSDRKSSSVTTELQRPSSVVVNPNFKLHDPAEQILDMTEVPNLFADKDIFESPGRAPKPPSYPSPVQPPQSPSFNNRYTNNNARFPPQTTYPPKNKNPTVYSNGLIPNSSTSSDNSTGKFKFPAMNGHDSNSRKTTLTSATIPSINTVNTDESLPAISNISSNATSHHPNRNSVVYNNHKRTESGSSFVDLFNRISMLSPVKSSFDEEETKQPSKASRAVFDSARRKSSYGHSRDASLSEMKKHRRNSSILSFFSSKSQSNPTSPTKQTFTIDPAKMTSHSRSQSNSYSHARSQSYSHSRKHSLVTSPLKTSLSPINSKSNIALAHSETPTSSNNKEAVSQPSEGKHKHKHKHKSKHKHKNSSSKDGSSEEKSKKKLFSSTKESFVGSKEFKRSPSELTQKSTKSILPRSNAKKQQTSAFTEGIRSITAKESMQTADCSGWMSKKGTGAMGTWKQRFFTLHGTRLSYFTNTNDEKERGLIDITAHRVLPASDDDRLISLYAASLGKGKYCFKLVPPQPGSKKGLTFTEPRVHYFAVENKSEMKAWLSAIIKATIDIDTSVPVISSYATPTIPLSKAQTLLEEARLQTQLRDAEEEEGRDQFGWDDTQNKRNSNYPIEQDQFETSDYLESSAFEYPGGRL

[2] = target: T2, Boi1_(Δ86-178)CRU (Saccharomyces cerevisiae) (UniProt P38041)
T2 sequence: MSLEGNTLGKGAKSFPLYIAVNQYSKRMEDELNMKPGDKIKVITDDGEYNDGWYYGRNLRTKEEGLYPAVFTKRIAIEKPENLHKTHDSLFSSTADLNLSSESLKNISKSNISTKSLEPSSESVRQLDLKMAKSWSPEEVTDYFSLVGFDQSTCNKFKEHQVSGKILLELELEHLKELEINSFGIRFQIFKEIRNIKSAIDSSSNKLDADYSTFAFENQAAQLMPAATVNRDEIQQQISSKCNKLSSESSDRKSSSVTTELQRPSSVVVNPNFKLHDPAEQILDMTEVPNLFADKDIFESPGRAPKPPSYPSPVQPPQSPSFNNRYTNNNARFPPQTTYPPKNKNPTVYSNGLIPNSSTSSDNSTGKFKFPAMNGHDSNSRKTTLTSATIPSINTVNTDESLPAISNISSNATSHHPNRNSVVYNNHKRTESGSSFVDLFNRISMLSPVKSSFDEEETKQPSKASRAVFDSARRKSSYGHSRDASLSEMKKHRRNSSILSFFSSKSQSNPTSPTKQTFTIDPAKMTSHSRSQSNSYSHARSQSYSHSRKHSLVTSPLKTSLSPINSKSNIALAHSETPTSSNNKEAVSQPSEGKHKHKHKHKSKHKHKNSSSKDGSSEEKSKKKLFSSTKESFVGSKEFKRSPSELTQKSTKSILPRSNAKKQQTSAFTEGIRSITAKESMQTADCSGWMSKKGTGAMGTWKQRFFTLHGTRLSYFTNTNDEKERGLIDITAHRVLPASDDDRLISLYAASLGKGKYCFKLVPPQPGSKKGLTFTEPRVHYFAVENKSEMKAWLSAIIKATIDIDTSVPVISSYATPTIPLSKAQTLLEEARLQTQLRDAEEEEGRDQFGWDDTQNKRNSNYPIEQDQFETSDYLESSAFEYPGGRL

[3] = target: Bni1CRU (Saccharomyces cerevisiae) (UniProt P41832)
[4] = target: T3, Bud6CRU (Saccharomyces cerevisiae) (UniProt P41697)
T3 sequence: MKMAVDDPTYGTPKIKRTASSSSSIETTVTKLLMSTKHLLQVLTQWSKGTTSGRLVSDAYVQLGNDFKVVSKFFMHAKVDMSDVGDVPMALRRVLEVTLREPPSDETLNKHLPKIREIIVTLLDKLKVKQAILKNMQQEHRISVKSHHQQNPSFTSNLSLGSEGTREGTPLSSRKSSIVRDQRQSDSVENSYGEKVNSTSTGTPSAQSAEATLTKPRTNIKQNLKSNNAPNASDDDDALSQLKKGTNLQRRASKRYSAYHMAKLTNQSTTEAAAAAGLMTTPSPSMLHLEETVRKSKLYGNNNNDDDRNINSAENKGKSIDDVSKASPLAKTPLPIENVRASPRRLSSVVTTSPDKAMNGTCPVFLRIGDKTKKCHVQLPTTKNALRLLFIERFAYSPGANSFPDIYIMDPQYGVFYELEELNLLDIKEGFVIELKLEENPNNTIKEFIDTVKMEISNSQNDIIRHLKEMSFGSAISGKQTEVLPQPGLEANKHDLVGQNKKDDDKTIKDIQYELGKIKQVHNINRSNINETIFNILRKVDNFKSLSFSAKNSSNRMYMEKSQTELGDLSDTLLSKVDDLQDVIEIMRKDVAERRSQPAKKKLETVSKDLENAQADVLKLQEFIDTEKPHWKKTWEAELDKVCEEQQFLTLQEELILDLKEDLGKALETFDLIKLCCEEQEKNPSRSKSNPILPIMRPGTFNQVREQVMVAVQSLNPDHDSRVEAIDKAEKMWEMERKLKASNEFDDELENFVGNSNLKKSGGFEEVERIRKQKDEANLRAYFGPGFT

Row | Molecule | binding [3] | binding [4] | binding [1] | binding [2]
1 | Nub fusion of Sec1 (from UniProt P30619 1-724) | – | – | binds | binds
2 | Nub fusion to the N-terminal 141 residues of Bud6 (domain or fragment, UniProt P41697 1-141) MKMAVDDPTYGTPKIKRTASSSSSIETTVTKLLMSTKHLLQVLTQWSKGTTSGRLVSDAYVQLGNDFKVVSKFFMHAKVDMSDVGDVPMALRRVLEVTLREPPSDETLNKHLPKIREIIVTLLDKLKVKQAILKNMQQEHR | – | – | binds | –
3 | Nub fusion to the Boi1 linker region (residues 77-178) (domain or fragment, UniProt P38041 77-178) IEKPENLHKSPTQESGNSGVKYGNLNDSASNIGKVSSHQQENRYTSLKSTMSDIDKALEELRSGSVEQEVSKSPTRVPEVSTPQLQDEQTLIQEKTRNEENT | – | binds | – | –
4 | Nub fusion of Boi1_(Δ86-178) (protein, UniProt P38041) MSLEGNTLGKGAKSFPLYIAVNQYSKRMEDELNMKPGDKIKVITDDGEYNDGWYYGRNLRTKEEGLYPAVFTKRIAIEKPENLHKTHDSLFSSTADLNLSSESLKNISKSNISTKSLEPSSESVRQLDLKMAKSWSPEEVTDYFSLVGFDQSTCNKFKEHQVSGKILLELELEHLKELEINSFGIRFQIFKEIRNIKSAIDSSSNKLDADYSTFAFENQAAQLMPAATVNRDEIQQQISSKCNKLSSESSDRKSSSVTTELQRPSSVVVNPNFKLHDPAEQILDMTEVPNLFADKDIFESPGRAPKPPSYPSPVQPPQSPSFNNRYTNNNARFPPQTTYPPKNKNPTVYSNGLIPNSSTSSDNSTGKFKFPAMNGHDSNSRKTTLTSATIPSINTVNTDESLPAISNISSNATSHHPNRNSVVYNNHKRTESGSSFVDLFNRISMLSPVKSSFDEEETKQPSKASRAVFDSARRKSSYGHSRDASLSEMKKHRRNSSILSFFSSKSQSNPTSPTKQTFTIDPAKMTSHSRSQSNSYSHARSQSYSHSRKHSLVTSPLKTSLSPINSKSNIALAHSETPTSSNNKEAVSQPSEGKHKHKHKHKSKHKHKNSSSKDGSSEEKSKKKLFSSTKESFVGSKEFKRSPSELTQKSTKSILPRSNAKKQQTSAFTEGIRSITAKESMQTADCSGWMSKKGTGAMGTWKQRFFTLHGTRLSYFTNTNDEKERGLIDITAHRVLPASDDDRLISLYAASLGKGKYCFKLVPPQPGSKKGLTFTEPRVHYFAVENKSEMKAWLSAIIKATIDIDTSVPVISSYATPTIPLSKAQTLLEEARLQTQLRDAEEEEGRDQFGWDDTQNKRNSNYPIEQDQFETSDYLESSAFEYPGGRL | binds | – | – | –
5 | Nub fusion to the N-terminal 300 residues of Boi1 (domain or fragment, UniProt P38041 1-300) MSLEGNTLGKGAKSFPLYIAVNQYSKRMEDELNMKPGDKIKVITDDGEYNDGWYYGRNLRTKEEGLYPAVFTKRIAIEKPENLHKSPTQESGNSGVKYGNLNDSASNIGKVSSHQQENRYTSLKSTMSDIDKALEELRSGSVEQEVSKSPTRVPEVSTPQLQDEQTLIQEKTRNEENTTHDSLFSSTADLNLSSESLKNISKSNISTKSLEPSSESVRQLDLKMAKSWSPEEVTDYFSLVGFDQSTCNKFKEHQVSGKILLELELEHLKELEINSFGIRFQIFKEIRNIKSAIDSSSNKL | binds | binds | – | –

Second part, led by results:

Row | binding [3] | binding [4] | Molecule | binding [1] | binding [2]
6 | binds | binds | Nub fusion to the N-terminal 300 residues of Boi2 (domain or fragment, UniProt P39969 1-300) MSNDREVPTLSQLNTTVSRDKDVSDTLSPDFDSKGSATGRDGGNFPMYIAINEYFKRMEDELDMKPGDKIKVITDDEEYKDGWYFGRNLRTNEEGLYPVVFTQKITVEKAPTLMRAKSTKRIYSPLTNEDPLLSSTFISENDSNSELPTPQPIETAASISRTANGKIERNLSLKNTMSDIDNALLEFKDDSIGPPDRFINSGRDEEHSITHETILSATDGLDVVESNSKPTTSSSTGFLNGDLENQATLINGIDTTKLNPVEAEFWSPEEITAYFIMEGYDVQSASRFQKHKISGKILLE | – | –
7 | binds | binds | Nub-Boi2 (protein, UniProt P39969 1-1040) MSNDREVPTLSQLNTTVSRDKDVSDTLSPDFDSKGSATGRDGGNFPMYIAINEYFKRMEDELDMKPGDKIKVITDDEEYKDGWYFGRNLRTNEEGLYPVVFTQKITVEKAPTLMRAKSTKRIYSPLTNEDPLLSSTFISENDSNSELPTPQPIETAASISRTANGKIERNLSLKNTMSDIDNALLEFKDDSIGPPDRFINSGRDEEHSITHETILSATDGLDVVESNSKPTTSSSTGFLNGDLENQATLINGIDTTKLNPVEAEFWSPEEITAYFIMEGYDVQSASRFQKHKISGKILLELELVHLKELDINSFGTRFEIFKEIEKIKEAIRTNGRSLNRASKTNNANIYNQLMPPANVDQRASYRGHVRKTSQSLEDLPSQQNFIPTPRNTRNSSASKHRPKSLVFDSQEANANIAPDVQIPQVVEEMAGNENLFVSPRRAPKPPSYPSPAQPPKSPLLNNTRTSPSPAQLYSWQSPTLSFSGPKRTSYIDQYSSSDSNFNSRSALPKNNQGGGKALSPIPSPTRNSVRNEDSEGKLTSSSKRNSVPYYGYAPESSSDRKSSCSSHEEEQFQETMNTFERPTSSIYADGSTIASISNDKLAHEKEGKKKPTRHSSSLSSKSKSDSRRNSSLKRSSSASRTSSFKKSSFMLSPFRQQFTDNAARSSSPEENPITSMPSEKNSSPIVDKKSSKKSRSKRRSVSAKEAEIFTETVKDDKNKRSASEAIKGETLKGKSLRQMTARPVAKKKQTSAFIEGLRSISVKEAMKDADFSGWMSKKGSGAMSTWKTRFFTLHGTRLSYFSSTTDTRERGLIDITAHRVVPAKEDDKLVSLYAASTGKGRYCFKLLPPQPGSKKGLTFTQPRTHYFAVDNKEEMRGWMAALIKTTIDIDTSVPIISSYTTPTVSLSKAQEMLAEAREETKLREQQMLENEEDEDQFLWDQQQLQQQQHDNNQGQADRTISASTQRTSDEDNTISTPNLSSANNTTIGSNGFSSPFLLASGLLSPGVARNSSMRGTEKKGKFSTEEDYFGDNSKHKTDKI | – | –
